Measured values taken from PubChem BioAssay AID493014 (National Center for Advancing Translational Sciences (NCATS), 2011).
Screen size: about 340,000 compounds; about 170 (0.05%) were called active. This list was built around the results that the source calls inconclusive (neither active nor inactive); the mix of calls is not that of the screen. Calls follow the shape of the dose curve; as a rule, active = well fitted inhibition curve with a large enough effect in the signal ratio, with a control signal flat (not every such curve was filed as active); inconclusive = small, poorly fitted or top-dose-only effect, or effect the other way, or a change in a side signal; inactive = flat fitted curve, though single readings scatter; the % refers to the signal ratio. A potency beside an inconclusive call is a rough fit, not a confirmed value.

Test: qHTS Assay to Find Inhibitors of Chronic Active B-Cell Receptor Signaling;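 as to activity change, negative = inhibition: plate controls were basal doxycycline-induced cells for no effect and cells given 10 µM MG132 for full effect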
Conditions: ABC-DLBCL IkBa-CBG/CBR reporter, luminescence ratio (green luciferase fused to IkBa over red control in TMD8 lymphoma cells), 4 h; activity change, negative = inhibition: at 46.1 µM (top of the series)
Summary of the method: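 Doxycycline induced both beetle luciferases in TMD8 lymphoma cells; IKK-driven degradation limits the IkappaBalpha-fused green signal, while red luminescence normalises for cell number and nonspecific effects. Compounds tested up to 46 uM, 4 hrs.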
Potency is read from the fitted curve at half-maximal effect.

Structure (SMILES)	activity change, negative = inhibition	Potency
C=CCN1C(=O)NC(=O)/C(=C\c2ccc(-c3ccccc3[N+](=O)[O-])o2)C1=O	inconclusive: 2.28%	
COc1cccc(NC(=O)C2CCC(CNS(=O)(=O)c3ccc4c(c3)CC(C)N4C(C)=O)CC2)c1 (centres undefined)		inconclusive: 31.6 µM [falling, single point]
CCc1cc2c(s1)N(CC(=O)OC)C(=O)CN=C2c1ccccc1OC	inconclusive: 15%	
O=c1[nH]c(=S)[nH]c(O)c1N=Nc1ccc(SC(F)F)cc1		inconclusive: 35.5 µM [rising, partial curve]
CCCCCCn1c(=O)c(C(=O)Nc2cnccn2)c(O)c2ccccc21	inactive: 3.78%	
Cn1nc(-c2ccc(OCC(=O)N3CCN(Cc4ccccc4)CC3)cc2)c2ccccc2c1=O	inconclusive: -3.51%	
CCCCCC[N+](=O)[O-]	inconclusive: 0.242%	
O=C(Oc1ccc(Cl)c2ccccc12)N1CCCCC1	inconclusive: -9.94%	
Brc1ccc(Oc2ccc(Br)cc2Br)c(Br)c1	inactive: 0.0458%	
O=c1ccc2cc(O[C@@H]3O[C@@H](CO)[C@H](O)[C@@H](O)[C@@H]3O)c(O)cc2o1	inconclusive: 1.93%	
CN1[C@@H]2CC[C@H]1CC(OC1c3ccccc3CCc3ccccc31)C2 (some centres undefined)		inconclusive: 25.9 µM [falling, single point]
O=C(c1ccc2c(c1)OCO2)C1CCCN(Cc2c(F)cccc2Cl)C1 (centres undefined)	inactive: 11.5%	
CCCCNC(=O)c1c(N)n(Cc2ccc3c(c2)OCO3)c2nc3ccccc3nc12	inactive: 5.66%	
CC(=O)c1cnc(-c2cccc(Cl)c2)s1	inconclusive: 10.5%	
Cc1ccc(C(=O)N[C@@H](C)CN2C3=NC[C@H](Cc4ccccc4)N3C[C@H]2Cc2ccc(O)cc2)cc1Br	inactive: -2.65%	
COC(=O)C1=CO[C@@H](C)[C@@H]2CN3CC[C@@]4(C(=O)Nc5ccccc54)[C@@H]3C[C@H]12	inconclusive: 1.86%	
CCOC(=O)COc1ccc(/C=C2\C(=O)NC(=S)N(c3ccc(OC)cc3)C2=O)cc1OC	inactive: 3.96%	
O=C(C1CCC(=O)N1C1CCCCC1)N1CCC2(CC1)OCCO2 (centres undefined)	inconclusive: 1.85%	
CCOc1ccc(C(=O)OC2CC3CCC(C2)N3C)cc1 (centres undefined)	inconclusive: 29.5%	
COc1ccc(NC(=O)N2CCC3(CC2)OCCO3)c(OC)c1	inconclusive: 8.25%	
CCNc1nc(-c2ccc(Cl)cc2)cs1	inconclusive: -1.47%	

Ordered by molecular weight (rising): 4 of the compounds above.
Structure (SMILES)	activity change, negative = inhibition	Potency
CCOc1ccc(C(=O)OC2CC3CCC(C2)N3C)cc1 (centres undefined)	inconclusive: 29.5%	
COC(=O)C1=CO[C@@H](C)[C@@H]2CN3CC[C@@]4(C(=O)Nc5ccccc54)[C@@H]3C[C@H]12	inconclusive: 1.86%	
O=C(c1ccc2c(c1)OCO2)C1CCCN(Cc2c(F)cccc2Cl)C1 (centres undefined)	inactive: 11.5%	
CCCCNC(=O)c1c(N)n(Cc2ccc3c(c2)OCO3)c2nc3ccccc3nc12	inactive: 5.66%	

(further entries)

Structure (SMILES)	activity change, negative = inhibition	Potency
C=CCN=C(SCC(=O)c1ccc(Cl)cc1)c1c(O)n(C)c(=O)n(C)c1=O		inconclusive: 12.6 µM [falling, partial curve]
CC(C)OP(=O)(OC(C)C)C(Nc1ccccc1)c1ccc2c(c1)OCO2 (centres undefined)	inconclusive: -13.5%	
COc1cc2c(c(OC)c1OC)-c1ccc(O)c(=O)cc1[C@@H](NC(C)=O)CC2	inconclusive: -9.9%	
COc1ccc(C(CC(=O)N2CCC3(CC2)OCCO3)NS(=O)(=O)c2ccc(C)cc2)cc1 (centres undefined)	inactive: 2.11%	
Cc1ccccc1NC(=O)CCl	inconclusive: -21%	
CCOC(=O)C1=C(C)NC(=S)NC1c1ccc(-c2cccc(Cl)c2C)o1 (centres undefined)	inconclusive: -3.32%	
COc1ccccc1-c1nnc(NC(=O)CCS(=O)(=O)c2ccccc2)o1	inconclusive: -17.8%	
CCN1CCN(Cc2ccc(C)cc2)CC1	inactive: 1.21%	
Cc1cc(C)cc(NC(=O)CN2C(=O)CN=C(c3ccccc3)c3cc(Cl)ccc32)c1	inconclusive: -2.02%	
CCCCn1c(=O)c(C(=O)Nc2ncccc2C)c(O)c2ccccc21	inactive: -1.59%	
Cc1cccc(NC(=O)C2CCCN2C(=O)Oc2ccccc2)c1 (centres undefined)	inconclusive: -4.87%	
Cc1ccc(NC(=O)c2cn(CCC#N)nc2-c2ccc3c(c2)OCCO3)c([N+](=O)[O-])c1	inactive: -22.6%	
Cc1cccc(CN2CCCC(C(=O)c3ccc4c(c3)OCO4)C2)n1 (centres undefined)	inactive: -29.8%	
N#CC(C#N)=Cc1ccc(C=C(C#N)C#N)cc1	inactive: -2.8%	
CSC(SC)=C(C#N)C(=O)c1ccccc1		inconclusive: 35.5 µM [falling, partial curve, poor fit]
CC/C(=N\NC(=O)c1ccccc1Cl)c1c(O)n(C2CCCCC2)c(=O)[nH]c1=O		inconclusive: 31.6 µM [falling, partial curve]
Nc1[nH]n(-c2ccccc2)c(=O)c1N=Nc1ccc2ncsc2c1		inconclusive: 28.2 µM [falling, single point]
CC1CCC/C=C/C2CC(O)CC2C(O)/C=C/C(=O)O1 (centres undefined)	inconclusive: -18.9%	
CN(C)C(=O)Oc1ccc(-c2cn3cc(Cl)ccc3n2)cc1	inactive: 7.04%	
Cc1ccc(N2C(=O)NC(=O)/C(=C/C=C/c3ccco3)C2=O)cc1		inconclusive: 29.1 µM [falling, single point]
CCOP(=O)(OCC)c1nc(-c2ccccc2)oc1N1CCCCC1	inconclusive: -1.76%	

One compound at a time (already shown).
Cc1ccc(N2C(=O)NC(=O)/C(=C/C=C/c3ccco3)C2=O)cc1 is listed with Potency: inconclusive: 29.1 µM [falling, single point]
N#CC(C#N)=Cc1ccc(C=C(C#N)C#N)cc1 is listed with activity change, negative = inhibition: inactive: -2.8%

Continued.

Structure (SMILES)	activity change, negative = inhibition	Potency
CCCCCCOC(=O)c1ccccc1N		inconclusive: 0.92 µM [rising, full curve]
CC1(C)CN=C(Nc2ccc(F)c(Cl)c2)S1	inconclusive: 20.1%	
O=C1NC(=O)C(=Cc2ccc3c(c2)OCO3)C(=O)N1	inactive: 4.66%	
Nc1ccccc1C(=O)OCC(=O)c1ccc2c(c1)OCCO2		inconclusive: 31.6 µM [rising, single point]
CCCCC(=O)N/N=C/c1c(O)n(CCCC)c(=S)[nH]c1=O	inconclusive: 2.38%	
COc1ccc(C2(C(=O)c3ccccc3)C(=O)c3ccccc3C2=O)cc1	inconclusive: 10.5%	
CN1CCC2(CC1)N=C(c1ccc(F)cc1)C(=S)N2	inactive: -3.13%	
Cc1ccccc1-n1c(O)c(/C=N/c2nccs2)c(=O)[nH]c1=O		inconclusive: 0.708 µM [falling, full curve, poor fit]
COc1ccc2c(c1OC)C(=O)OC2c1c(O)n(Cc2ccc(F)cc2)c(=O)[nH]c1=O (centres undefined)	inconclusive: 2.26%	
CC1C(OC(=O)CCC(=O)NC(C)(C)CO)O[C@H]2OC3(C)CC[C@H]4[C@H](C)CCC1C24OO3 (some centres undefined)	inconclusive: 0.152%	
CCCOc1ccccc1C1SCC(=O)Nc2c1c(=O)[nH]n2C(C)CCC (centres undefined)	inconclusive: -2.55%	
Cc1ccccc1NC(=O)COC(=O)c1cc(C)n(C2CC2)c1C		inconclusive: 23.1 µM [falling, partial curve]
CCOc1ccc(-c2cc(C)[n+](CCc3ccc(OC)c(OC)c3)c(-c3ccc(OCC)cc3)c2)cc1		inconclusive: 22.4 µM [falling, single point]
COc1cc(OC)c(OC)cc1CNCCc1ccc(OC)c(OC)c1	inactive: -0.0804%	
Cc1cc(OCc2cc(C(=O)O)oc2C)c2c3c(c(=O)oc2c1)CCCC3	inconclusive: 1.54%	
CCCCN1C(=O)C(=O)NC[C@@H]1C(C)CC (some centres undefined)	inconclusive: -1.48%	
COc1ccccc1N1CCN(C2CCCN(C(=O)COc3ccccc3Cl)C2)CC1 (centres undefined)		inconclusive: 35.5 µM [falling, single point]
CCCCCCCSc1cc(OC)c(CCN(C)C)cc1OC	inconclusive: 17.4%	
COc1ccccc1-n1c(-c2ccc(C)cc2)nc2ccccc2c1=O	inconclusive: 0.482%	
Cc1cc(N2CCCCC2)ccc1C=C1C(=O)N(C)C(=S)N(C)C1=O	inconclusive: 1.11%	
Oc1cccc2nc3ccccc3nc12		inconclusive: 35.5 µM [cytotoxic, single point]

Structure (SMILES)	activity change, negative = inhibition	Potency
CCC1CCCCN1Cc1ccc(CNS(=O)(=O)c2ccc3c(c2)oc(=O)n3C)o1 (centres undefined)	inconclusive: -19.8%	
COc1cc(/C=C/[N+](=O)[O-])ccc1OC(=O)c1cccnc1	inactive: -2.59%	
NC(=O)CN1CCCC1=O	inconclusive: 10.1%	
COc1ccccc1CN1CCN(C(=O)COc2ccccc2)CC1	inconclusive: -2.17%	
CCCNC(=O)N1[C@H]2CC[C@@H]1C(C(=O)OC)=C(c1ccc(-c3ccccc3)c(F)c1)C2	inconclusive: -15.9%	
CN1CCN(Cc2c(F)cccc2Cl)CC1		inconclusive: 35.5 µM [falling, single point]
COC(=O)C(NC(=S)N1CC2C[C@@H](C1)Cn1c2cccc1=O)C(C)C (some centres undefined)	inconclusive: -20.7%	
O=c1[nH]c(=O)n(C2CCCCC2)c(O)c1/C=C/C=Nc1ccccc1	inconclusive: -0.674%	
O=C1NC(=O)C(CCc2ccccn2)(Cc2cccc(Cl)c2Cl)C(=O)N1c1ccc(Br)cc1 (centres undefined)	inconclusive: -3.25%	
CCCCCCCCCCCCn1ccc(=N)cc1		inconclusive: 35.5 µM [rising, single point]
COc1ccccc1N1CCN(Cc2ccc(Br)cc2)CC1	inactive: 3.72%	
O=C1/C(=C\c2ccncc2)N2CCC1CC2	inconclusive: -3.97%	
COc1cc(C(O)c2nc3ccccc3s2)cc(OC)c1OC (centres undefined)		inconclusive: 10 µM [falling, partial curve, poor fit]
CC12CCC(=O)C=C1CCC1C2CCC2(C)C(O)CCC12 (centres undefined)	inconclusive: 3.91%	
Cn1c(C(=O)N2CCC3(CC2)OCCO3)cc2c(=O)n(C)c3ccccc3c21	inactive: -0.378%	
Cc1cc(NC(=O)CSc2nnc(-c3ccc(Cl)s3)o2)no1	inconclusive: 3.52%	
CC(=O)c1ccc(OC(=O)N(C)c2ccccc2)cc1	inconclusive: 5.84%	
COC(=O)C1=C(c2ccccc2OCc2ccccc2)C[C@@H]2CC[C@H]1N2C(=O)NCCc1ccc(F)cc1	inconclusive: -3.4%	
OCC#CC[N+]1(CC#Cc2ccccc2)CCCC1	inconclusive: 9.76%	
c1cc(CCN2CCCC2)ccn1	inconclusive: -0.284%	
CC(=O)Cn1c(=O)oc2ccccc21	inconclusive: 6.51%	
